Results are given in words; binding and its absence hold for the method and conditions named. Binding seen in cells or lysates may run through a third protein. Some entries that bind do so weakly or less than the wild type.
Molecular target: β-catenin (human (endogenous in T47D)) (UniProt P35222)
Assay: co-IP; endogenous proteins of T47D cells lysed in RIPA buffer; ~2 mg lysate with 2 ug anti-E-cadherin or anti-β-catenin antibody overnight at 4°C, protein A/G agarose beads, western blot; cells with or without EGTA (4 mM), Ca2+ (1.8 mM) added after EGTA; irrelevant IgG as negative control

Protein sequences, listed by entry. Tags and fused reporters are not part of them. Lines headed by an entry give the natural chain unless they say otherwise; changes in a name come on top.
UniProt P35222: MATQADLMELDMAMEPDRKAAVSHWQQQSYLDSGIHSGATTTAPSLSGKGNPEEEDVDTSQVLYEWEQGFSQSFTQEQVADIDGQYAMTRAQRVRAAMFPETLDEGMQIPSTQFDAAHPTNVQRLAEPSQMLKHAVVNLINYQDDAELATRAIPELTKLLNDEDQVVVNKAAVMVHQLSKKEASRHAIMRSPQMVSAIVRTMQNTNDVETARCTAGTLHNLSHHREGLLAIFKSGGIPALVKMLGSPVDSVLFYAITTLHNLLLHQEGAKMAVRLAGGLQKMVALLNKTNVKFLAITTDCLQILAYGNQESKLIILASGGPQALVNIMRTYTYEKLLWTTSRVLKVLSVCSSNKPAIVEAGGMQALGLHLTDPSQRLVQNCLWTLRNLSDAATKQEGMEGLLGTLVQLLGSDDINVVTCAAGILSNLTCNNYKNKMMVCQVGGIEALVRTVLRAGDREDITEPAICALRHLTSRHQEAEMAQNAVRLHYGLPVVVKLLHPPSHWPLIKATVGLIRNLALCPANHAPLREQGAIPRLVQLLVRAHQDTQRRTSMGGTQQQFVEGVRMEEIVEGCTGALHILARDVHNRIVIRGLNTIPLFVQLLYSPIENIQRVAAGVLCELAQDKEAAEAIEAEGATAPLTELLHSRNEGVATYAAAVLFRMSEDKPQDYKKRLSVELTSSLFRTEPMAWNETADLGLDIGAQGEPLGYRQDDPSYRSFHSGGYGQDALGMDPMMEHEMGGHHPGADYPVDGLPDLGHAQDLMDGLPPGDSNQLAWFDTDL

B1: Small G protein signalling modulator 2 (SGSM2) (protein, UniProt O43147 1-1006)
chain: MGSAEDAVKEKLLWNVKKEVKQIMEEAVTRKFVHEDSSHIIALCGAVEACLLHQLRRRAAGFLRSDKMAALFTKVGKTCPVAGEICHKVQELQQQAEGRKPSGVSQEALRRQGSASGKAPALSPQALKHVWVRTALIEKVLDKVVQYLAENCSKYYEKEALLADPVFGPILASLLVGPCALEYTKLKTADHYWTDPSADELVQRHRIRGPPTRQDSPAKRPALGIRKRHSSGSASEDRLAACARECVESLHQNSRTRLLYGKNHVLVQPKEDMEAVPGYLSLHQSAESLTLKWTPNQLMNGTLGDSELEKSVYWDYALVVPFSQVVCIHCHQQKSGGTLVLVSQDGIQRPPLHFPQGGHLLSFLSCLENGLLPRGQLEPPLWTQQGKGKVFPKLRKRSSIRSVDMEEMGTGRATDYVFRIIYPGHRHEHNAGDMIEMQGFGPSLPAWHLEPLCSQGSSCLSCSSSSSPHATPSHCSCIPDRLPLRLLCESMKRQIVSRAFYGWLAHCRHLSTVRTHLSALVHHSVIPPDRPPGASAGLTKDVWSKYQKDKKNYKELELLRQVYYGGIEHEIRKDVWPFLLGHYKFGMSKKEMEQVDAVVAARYQQVLAEWKACEVVVRQREREAHPATRTKFSSGSSIDSHVQRLIHRDSTISNDVFISVDDLEPPEPQDPEDSRPKPEQEAGPGTPGTAVVEQQHSVEFDSPDSGLPSSRNYSVASGIQSSLDEGQSVGFEEEDGGGEEGSSGPGPAAHTLREPQDPSQEKPQAGELEAGEELAAVCAAAYTIELLDTVALNLHRIDKDVQRCDRNYWYFTPPNLERLRDVMCSYVWEHLDVGYVQGMCDLLAPLLVTLDNDQLAYSCFSHLMKRMSQNFPNGGAMDTHFANMRSLIQILDSELFELMHQNGDYTHFYFCYRWFLLDFKRELLYEDVFAVWEVIWAARHISSEHFVLFIALALVEAYREIIRDNNMDFTDIIKFFNERAEHHDAQEILRIARDLVHKVQMLIENK
  binding: binds

From paper PMC6527379
